Data reported in article PMC5218472 (PLoS Biology, 2017).
Some peptides are written in HELM: one residue between dots, names in brackets for other building blocks, links after the first $.

Assay: general procedure: Fmoc solid-phase peptide synthesis; Trt-ChemMatrix resin (PCAS Biomatrix), loading 0.42 mmol/g; HCTU/DIPEA; DIC/HOOBt for Fmoc-Thr(Ac3GalNAc)-OH
Conditions: whole synthesis, scale of the general procedure 500 mg resin
Substance “PEPTIDE1{N.I.L.F.R.D.S.A.N.A.T.S.L.P.V.Q.D.S.S.S.V.P.L.P}$$$$V2.0” has an isolated yield of 15%.
“PEPTIDE1{N.I.L.F.R.D.S.A.N.A.[ThrGalNAc].S.L.P.V.Q.D.S.S.S.V.P.L.P}$$$$V2.0” showed an isolated yield of 25%.
“PEPTIDE1{N.I.L.F.R.D.S.A.N.A.T.S.L.P.V.Q.A.S.S.S.V.P.L.P}$$$$V2.0” gave an isolated yield of 15%.
With “PEPTIDE1{N.I.L.F.R.D.S.A.[AsnGlcNAc].A.T.S.L.P.V.Q.A.S.S.S.V.P.L.P}$$$$V2.0” the isolated yield was 17%.
“PEPTIDE1{N.I.L.F.R.D.S.A.[AsnGlcNAc].A.T.S.L.P.V.Q.D.S.S.S.V.P.L.P}$$$$V2.0” gave an isolated yield of 16%.
Substance “PEPTIDE1{N.I.L.F.R.D.S.A.N.A.[ThrGalNAc].S.L.P.V.Q.A.S.S.S.V.P.L.P}$$$$V2.0” has an isolated yield of 22%.
